These are yes or no findings as the source states them, for the method shown. Binding seen in cells or lysates may run through a third protein.

Amino acid sequences for entries named in this document (tags omitted). A change or cut given only in a name is not applied to a line headed by its entry.
UniProt Q99KG5: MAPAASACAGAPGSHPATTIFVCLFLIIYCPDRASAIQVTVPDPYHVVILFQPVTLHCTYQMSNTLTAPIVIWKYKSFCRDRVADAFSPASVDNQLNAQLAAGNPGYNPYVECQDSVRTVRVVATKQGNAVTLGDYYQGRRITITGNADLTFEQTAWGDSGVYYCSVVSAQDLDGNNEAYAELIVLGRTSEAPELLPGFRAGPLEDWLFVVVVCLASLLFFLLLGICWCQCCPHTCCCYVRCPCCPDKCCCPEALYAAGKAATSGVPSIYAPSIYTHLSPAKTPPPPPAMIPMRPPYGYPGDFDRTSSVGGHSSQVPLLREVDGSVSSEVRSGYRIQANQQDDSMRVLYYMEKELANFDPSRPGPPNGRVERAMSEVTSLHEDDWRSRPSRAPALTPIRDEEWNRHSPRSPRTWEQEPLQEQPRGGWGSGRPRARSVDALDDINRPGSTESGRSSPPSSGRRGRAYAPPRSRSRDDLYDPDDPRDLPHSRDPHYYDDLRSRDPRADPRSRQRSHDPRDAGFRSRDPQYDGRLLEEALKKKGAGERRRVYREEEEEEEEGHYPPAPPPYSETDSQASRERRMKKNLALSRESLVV
UniProt Q9QVP9: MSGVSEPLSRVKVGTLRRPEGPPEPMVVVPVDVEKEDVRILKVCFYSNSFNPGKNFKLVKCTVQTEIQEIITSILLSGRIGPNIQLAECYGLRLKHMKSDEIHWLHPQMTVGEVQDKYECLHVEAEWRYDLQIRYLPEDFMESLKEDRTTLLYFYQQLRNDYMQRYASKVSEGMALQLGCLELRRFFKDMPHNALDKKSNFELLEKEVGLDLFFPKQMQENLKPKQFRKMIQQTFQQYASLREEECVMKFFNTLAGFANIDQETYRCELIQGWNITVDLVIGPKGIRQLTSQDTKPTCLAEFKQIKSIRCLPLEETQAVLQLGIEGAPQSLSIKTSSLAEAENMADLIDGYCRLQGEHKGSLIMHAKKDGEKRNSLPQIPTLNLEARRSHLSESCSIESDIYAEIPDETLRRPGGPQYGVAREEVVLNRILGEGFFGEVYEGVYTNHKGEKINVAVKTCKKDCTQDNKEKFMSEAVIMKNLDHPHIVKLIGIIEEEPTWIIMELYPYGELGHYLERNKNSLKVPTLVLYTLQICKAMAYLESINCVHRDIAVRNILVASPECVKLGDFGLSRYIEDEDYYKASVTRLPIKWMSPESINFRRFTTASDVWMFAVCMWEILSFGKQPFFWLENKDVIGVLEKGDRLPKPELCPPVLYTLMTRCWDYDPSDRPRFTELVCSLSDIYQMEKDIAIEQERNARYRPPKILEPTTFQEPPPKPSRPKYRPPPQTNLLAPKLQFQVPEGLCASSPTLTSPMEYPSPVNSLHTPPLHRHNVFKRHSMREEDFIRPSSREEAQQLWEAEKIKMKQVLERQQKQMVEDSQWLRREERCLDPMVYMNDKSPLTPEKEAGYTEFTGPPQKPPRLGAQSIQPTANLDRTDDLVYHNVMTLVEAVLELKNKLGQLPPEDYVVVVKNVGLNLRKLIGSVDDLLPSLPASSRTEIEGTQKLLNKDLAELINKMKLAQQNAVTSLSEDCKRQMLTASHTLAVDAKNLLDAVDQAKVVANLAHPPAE

Experimental findings from PMC6773211 are described below.

The target of the experiment is LSR-GFP (mouse lipolysis-stimulated lipoprotein receptor fused to GFP) (mouse) (UniProt Q99KG5). Briefly: co-IP; lysates of EpH4 cells transfected with LSR-GFP (72 h) immunoprecipitated with anti-GFP or normal rabbit IgG antibody, immunoblot with anti-GFP or anti-Pyk2 antibody; carried out as described in ref. 15. (In general: Immunoblotting shows a protein as a band on a membrane.)

In the case of “Pyk2 (nonreceptor tyrosine kinase) (from UniProt Q9QVP9 1-1009) (enzyme)”, the binding entry is on record as “no binding”.
